The list shows a part of the results.
What was measured:
Assay in all cases: log2 fold change, soluble protein after heating vs DMSO (PISA); higher = thermal stabilisation; K562 cells, 10 uM, 30 min; active = over 0.2 and 3.5 SD of the protein, either way, in both replicates (recomputed)
[1] = compound: CC[C@@H]1C(=O)N(C)c2cnc(Nc3ccc(C(=O)NC4CCN(C)CC4)cc3OC)nc2N1C1CCCC1
Procedure, shortened: (§1)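 Quantification of soluble protein used TMTpro 16plex LC-MS/MS, with channel sums equalised. Samples were the supernatant after 21,000xg for 90 min of pooled aliquots from K562 cells (2×10^6 cells/mL) treated with 10 μM compound for 30 min, heated for 3 min over 48°C-58°C, and extracted in PBS with 0.5% NP-40 at 4°C. Values, from duplicates, describe thermal stability against control samples on a log2 fold-change scale.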

The chains behind the UniProt entries cited, without tags or fusion partners. Where a name states a change or a piece, a line headed by the entry shows the natural chain unless it says otherwise.
UniProt O60583: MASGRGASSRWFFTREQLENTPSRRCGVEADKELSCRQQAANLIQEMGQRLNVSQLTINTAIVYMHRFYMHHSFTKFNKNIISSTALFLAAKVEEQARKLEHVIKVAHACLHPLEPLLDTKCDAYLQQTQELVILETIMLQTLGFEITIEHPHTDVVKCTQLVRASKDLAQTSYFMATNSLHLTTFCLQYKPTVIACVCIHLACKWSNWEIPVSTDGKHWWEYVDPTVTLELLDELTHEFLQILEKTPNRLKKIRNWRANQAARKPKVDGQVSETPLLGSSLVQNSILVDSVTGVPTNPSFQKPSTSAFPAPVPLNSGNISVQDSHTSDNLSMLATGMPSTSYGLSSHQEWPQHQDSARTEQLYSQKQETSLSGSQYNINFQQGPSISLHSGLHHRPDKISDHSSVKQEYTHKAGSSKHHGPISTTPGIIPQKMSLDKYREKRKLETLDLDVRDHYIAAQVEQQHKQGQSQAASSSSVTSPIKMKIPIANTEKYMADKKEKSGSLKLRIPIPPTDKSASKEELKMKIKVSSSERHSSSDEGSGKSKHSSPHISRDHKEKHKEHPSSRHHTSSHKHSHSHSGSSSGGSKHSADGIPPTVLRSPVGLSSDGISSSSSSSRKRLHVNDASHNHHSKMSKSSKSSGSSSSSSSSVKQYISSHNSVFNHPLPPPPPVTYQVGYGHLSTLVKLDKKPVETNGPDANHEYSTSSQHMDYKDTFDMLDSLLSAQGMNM
UniProt Q8N4S0: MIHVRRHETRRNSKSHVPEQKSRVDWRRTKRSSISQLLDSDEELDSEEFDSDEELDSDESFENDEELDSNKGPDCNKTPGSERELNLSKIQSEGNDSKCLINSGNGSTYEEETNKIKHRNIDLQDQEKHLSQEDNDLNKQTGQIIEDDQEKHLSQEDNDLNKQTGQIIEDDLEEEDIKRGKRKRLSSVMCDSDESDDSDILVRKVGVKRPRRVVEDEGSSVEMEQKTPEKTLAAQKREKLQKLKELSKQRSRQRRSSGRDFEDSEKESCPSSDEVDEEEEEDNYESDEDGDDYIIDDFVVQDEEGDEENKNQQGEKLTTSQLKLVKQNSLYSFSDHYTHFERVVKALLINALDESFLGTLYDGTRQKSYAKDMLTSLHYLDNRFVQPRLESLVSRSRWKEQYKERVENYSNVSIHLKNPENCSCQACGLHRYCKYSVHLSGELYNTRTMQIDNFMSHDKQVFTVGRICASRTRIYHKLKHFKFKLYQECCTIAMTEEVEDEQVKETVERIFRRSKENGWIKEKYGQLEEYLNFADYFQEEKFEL
UniProt P30281: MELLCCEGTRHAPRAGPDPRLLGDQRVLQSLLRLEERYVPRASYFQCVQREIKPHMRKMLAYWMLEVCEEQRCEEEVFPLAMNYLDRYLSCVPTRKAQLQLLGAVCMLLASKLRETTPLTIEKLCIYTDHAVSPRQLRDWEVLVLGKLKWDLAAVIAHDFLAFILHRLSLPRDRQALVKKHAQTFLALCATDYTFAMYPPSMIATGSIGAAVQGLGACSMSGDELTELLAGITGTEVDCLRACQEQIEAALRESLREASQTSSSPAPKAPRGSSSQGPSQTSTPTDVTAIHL
UniProt Q8N9Z2: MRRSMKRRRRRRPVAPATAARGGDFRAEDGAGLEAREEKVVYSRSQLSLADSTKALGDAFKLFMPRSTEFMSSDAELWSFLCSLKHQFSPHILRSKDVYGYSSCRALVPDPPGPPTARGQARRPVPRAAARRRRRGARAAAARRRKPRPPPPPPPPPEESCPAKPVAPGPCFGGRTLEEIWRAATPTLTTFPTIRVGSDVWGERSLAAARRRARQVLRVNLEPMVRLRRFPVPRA
UniProt Q7Z3E2: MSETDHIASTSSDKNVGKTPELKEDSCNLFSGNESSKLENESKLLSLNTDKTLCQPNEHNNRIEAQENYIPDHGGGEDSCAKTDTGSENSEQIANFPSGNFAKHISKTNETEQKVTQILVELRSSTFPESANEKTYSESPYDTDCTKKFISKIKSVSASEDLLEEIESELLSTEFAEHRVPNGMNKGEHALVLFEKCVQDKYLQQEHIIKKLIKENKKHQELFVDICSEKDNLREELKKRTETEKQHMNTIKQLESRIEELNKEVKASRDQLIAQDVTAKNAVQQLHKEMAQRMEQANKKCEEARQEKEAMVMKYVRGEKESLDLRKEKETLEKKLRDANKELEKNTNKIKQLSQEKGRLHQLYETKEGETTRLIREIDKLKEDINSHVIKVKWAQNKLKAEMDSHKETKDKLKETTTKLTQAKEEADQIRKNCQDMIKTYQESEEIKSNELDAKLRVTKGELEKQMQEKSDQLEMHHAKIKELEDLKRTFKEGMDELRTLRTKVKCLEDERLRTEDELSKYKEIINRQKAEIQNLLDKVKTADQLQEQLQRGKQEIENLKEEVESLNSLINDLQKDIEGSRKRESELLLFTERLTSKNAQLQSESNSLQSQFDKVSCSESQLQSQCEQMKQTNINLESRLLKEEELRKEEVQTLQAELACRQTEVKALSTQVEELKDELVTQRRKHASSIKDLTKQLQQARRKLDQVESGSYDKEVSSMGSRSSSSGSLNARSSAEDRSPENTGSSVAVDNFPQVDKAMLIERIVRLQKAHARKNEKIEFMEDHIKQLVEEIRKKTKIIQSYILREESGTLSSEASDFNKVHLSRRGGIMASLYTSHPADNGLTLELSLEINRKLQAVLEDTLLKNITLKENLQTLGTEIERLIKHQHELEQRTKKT
UniProt Q8N350: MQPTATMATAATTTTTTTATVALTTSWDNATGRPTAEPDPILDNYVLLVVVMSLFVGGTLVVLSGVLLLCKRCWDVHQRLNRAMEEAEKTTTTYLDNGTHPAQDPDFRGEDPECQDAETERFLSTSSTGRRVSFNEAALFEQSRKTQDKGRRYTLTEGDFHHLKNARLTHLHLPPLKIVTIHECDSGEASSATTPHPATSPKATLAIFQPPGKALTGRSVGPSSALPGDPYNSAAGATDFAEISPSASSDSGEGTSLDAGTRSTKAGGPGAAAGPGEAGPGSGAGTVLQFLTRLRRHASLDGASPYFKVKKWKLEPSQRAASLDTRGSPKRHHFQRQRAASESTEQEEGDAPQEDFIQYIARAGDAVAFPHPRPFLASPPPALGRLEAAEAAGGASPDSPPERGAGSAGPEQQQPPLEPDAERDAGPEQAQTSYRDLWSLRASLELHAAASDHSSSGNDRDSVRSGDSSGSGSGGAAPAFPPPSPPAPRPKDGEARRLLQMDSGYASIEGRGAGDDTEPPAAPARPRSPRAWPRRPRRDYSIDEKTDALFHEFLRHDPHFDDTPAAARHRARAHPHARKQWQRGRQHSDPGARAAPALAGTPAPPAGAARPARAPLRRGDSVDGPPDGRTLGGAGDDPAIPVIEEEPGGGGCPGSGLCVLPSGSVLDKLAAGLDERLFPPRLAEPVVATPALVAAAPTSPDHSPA
UniProt O95273: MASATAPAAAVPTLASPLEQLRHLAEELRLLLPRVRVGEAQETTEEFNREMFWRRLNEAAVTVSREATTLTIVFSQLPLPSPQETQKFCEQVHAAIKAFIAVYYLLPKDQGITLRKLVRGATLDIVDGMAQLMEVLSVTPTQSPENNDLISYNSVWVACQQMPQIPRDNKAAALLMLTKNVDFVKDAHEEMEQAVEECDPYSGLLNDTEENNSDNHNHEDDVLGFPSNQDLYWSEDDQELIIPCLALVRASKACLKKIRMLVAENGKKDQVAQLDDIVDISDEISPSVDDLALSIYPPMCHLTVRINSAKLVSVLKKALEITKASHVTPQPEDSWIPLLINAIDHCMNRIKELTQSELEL
UniProt P20138, whole entry, looked up: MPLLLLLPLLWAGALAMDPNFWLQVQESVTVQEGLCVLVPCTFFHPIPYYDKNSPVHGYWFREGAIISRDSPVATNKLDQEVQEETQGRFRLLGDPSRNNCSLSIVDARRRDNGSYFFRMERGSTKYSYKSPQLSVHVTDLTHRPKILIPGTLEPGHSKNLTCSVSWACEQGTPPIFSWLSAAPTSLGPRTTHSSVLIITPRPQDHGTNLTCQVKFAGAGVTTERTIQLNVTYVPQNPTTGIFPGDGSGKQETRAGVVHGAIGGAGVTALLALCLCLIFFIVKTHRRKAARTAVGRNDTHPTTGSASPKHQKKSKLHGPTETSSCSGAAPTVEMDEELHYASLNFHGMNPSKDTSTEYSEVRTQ
UniProt Q13951, whole entry, looked up: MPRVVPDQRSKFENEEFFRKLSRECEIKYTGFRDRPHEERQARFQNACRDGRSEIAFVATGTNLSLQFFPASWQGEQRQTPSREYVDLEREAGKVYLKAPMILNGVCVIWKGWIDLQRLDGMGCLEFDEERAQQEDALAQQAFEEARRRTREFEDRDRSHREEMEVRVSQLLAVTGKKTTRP
UniProt Q92851: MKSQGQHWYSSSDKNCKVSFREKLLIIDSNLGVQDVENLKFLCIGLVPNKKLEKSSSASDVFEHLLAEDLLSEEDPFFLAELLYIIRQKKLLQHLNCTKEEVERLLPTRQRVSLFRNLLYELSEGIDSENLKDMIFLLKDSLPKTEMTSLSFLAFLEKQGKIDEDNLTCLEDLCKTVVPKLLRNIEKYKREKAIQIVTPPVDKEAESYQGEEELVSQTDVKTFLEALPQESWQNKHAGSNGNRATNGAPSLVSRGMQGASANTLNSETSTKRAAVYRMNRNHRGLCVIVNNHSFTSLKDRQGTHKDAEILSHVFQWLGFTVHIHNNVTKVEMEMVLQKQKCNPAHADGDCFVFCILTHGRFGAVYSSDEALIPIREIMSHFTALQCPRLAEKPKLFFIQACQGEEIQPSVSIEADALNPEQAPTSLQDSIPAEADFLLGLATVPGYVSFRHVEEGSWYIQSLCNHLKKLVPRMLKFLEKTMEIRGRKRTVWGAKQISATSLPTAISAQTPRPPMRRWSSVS
UniProt Q9P0B6: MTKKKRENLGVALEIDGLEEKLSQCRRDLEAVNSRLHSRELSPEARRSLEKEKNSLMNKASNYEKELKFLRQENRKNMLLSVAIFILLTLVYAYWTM
UniProt A6NKD9: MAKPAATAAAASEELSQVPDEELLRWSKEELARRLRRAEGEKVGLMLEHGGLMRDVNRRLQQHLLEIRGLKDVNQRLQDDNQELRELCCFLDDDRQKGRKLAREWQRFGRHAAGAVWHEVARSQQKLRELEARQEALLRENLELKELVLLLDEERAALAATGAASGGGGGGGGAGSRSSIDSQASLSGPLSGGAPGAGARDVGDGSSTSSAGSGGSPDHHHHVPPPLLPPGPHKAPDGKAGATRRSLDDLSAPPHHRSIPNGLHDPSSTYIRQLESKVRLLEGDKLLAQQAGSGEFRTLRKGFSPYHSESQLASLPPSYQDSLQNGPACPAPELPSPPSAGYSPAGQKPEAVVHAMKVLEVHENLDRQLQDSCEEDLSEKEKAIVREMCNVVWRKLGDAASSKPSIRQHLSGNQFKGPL
UniProt P30305: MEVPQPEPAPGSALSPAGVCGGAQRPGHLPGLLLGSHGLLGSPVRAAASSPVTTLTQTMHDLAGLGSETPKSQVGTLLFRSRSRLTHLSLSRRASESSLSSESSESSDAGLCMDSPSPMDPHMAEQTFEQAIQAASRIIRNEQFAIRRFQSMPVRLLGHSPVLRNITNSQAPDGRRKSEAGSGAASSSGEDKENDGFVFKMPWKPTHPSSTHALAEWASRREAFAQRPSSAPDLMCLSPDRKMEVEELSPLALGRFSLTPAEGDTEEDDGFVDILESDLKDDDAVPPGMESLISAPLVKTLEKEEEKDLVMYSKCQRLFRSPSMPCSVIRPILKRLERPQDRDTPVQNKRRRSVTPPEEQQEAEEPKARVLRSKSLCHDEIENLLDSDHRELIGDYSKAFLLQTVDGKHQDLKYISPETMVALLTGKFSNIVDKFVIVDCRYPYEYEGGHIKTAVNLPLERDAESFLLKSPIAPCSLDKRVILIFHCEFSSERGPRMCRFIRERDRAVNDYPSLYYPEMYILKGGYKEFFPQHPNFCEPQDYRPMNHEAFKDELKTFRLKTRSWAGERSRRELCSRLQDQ
UniProt Q9HC52: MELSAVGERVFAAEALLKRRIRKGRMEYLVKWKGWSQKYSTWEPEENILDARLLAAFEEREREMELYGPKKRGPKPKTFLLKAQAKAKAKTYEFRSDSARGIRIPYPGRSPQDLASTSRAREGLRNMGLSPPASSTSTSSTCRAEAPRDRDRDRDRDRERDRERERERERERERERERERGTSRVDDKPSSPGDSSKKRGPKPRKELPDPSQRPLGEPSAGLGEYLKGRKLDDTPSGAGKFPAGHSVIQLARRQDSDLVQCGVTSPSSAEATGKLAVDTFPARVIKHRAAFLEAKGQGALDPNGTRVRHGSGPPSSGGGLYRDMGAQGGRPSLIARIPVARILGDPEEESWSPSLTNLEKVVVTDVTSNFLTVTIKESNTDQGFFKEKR

volasertib = compound: CC[C@@H]1C(=O)N(C)c2cnc(Nc3ccc(C(=O)N[C@H]4CC[C@H](N5CCN(CC6CC6)CC5)CC4)cc3OC)nc2N1C(C)C [volasertib]
Procedure, shortened: as §1

[2] = compound: CC[C@H](C)N1C=C(C2=C(C=C(C=C21)C3=CN=C(C=C3)N4CCNCC4)C(=O)NCC5=C(C=C(NC5=O)C)C)C
Procedure, shortened: as §1

epoxomicin = compound: CC[C@H](C)[C@@H](C(=O)N[C@@H]([C@@H](C)O)C(=O)N[C@@H](CC(C)C)C(=O)[C@]1(CO1)C)NC(=O)[C@H]([C@@H](C)CC)N(C)C(=O)C [epoxomicin]
Procedure, shortened: as §1

[3] = compound: CCn1cc(-c2ccnc3[nH]c(-c4cccc(CN(C)C)c4)cc23)c(-c2ccc(NC(=O)N(C)C)cc2)n1
Procedure, shortened: as §1

[4] = compound: CN1C2=C(C3=C1C(=O)N(N=C3)CC4=CC(=CC=C4)N)SC(=C2)S(=O)C
Procedure, shortened: as §1

[5] = compound: CN1CCC(CNc2ccc3ncc(-c4cccc(OC(F)(F)F)c4)n3n2)CC1
Procedure, shortened: as §1

saracatinib = compound: CN1CCN(CCOc2cc(OC3CCOCC3)c3c(Nc4c(Cl)ccc5c4OCO5)ncnc3c2)CC1 [saracatinib]
Procedure, shortened: as §1

sotrastaurin = compound: CN1CCN(c2nc(C3=C(c4c[nH]c5ccccc45)C(=O)NC3=O)c3ccccc3n2)CC1 [sotrastaurin]
Procedure, shortened: as §1

Tubastatin A = compound: CN1CCc2c(c3ccccc3n2Cc2ccc(C(=O)NO)cc2)C1 [Tubastatin A]
Procedure, shortened: as §1

rucaparib = compound: CNCc1ccc(-c2[nH]c3cc(F)cc4c3c2CCNC4=O)cc1 [rucaparib]
Procedure, shortened: as §1

[6] = compound: CNc1nc(-c2ccc3c(N)n[nH]c3c2)cc(N2C[C@@H](C(=O)NC3CCCCC3)CC[C@H]2C)n1
Procedure, shortened: as §1

encorafenib = compound: COC(=O)N[C@@H](C)CNc1nccc(-c2cn(C(C)C)nc2-c2cc(Cl)cc(NS(C)(=O)=O)c2F)n1 [encorafenib]
Procedure, shortened: as §1

[7] = compound: CN(C)CC(=O)Nc1ccc2[nH]c(=O)c3ccccc3c2c1
Procedure, shortened: as §1

[8] = compound: CNC(=O)C1=CC=CC=C1NC2=NC(=NC=C2Cl)NC3=C(C=C(C=C3)N4CCOCC4)OC
Procedure, shortened: as §1

defactinib = compound: CNC(=O)c1ccc(Nc2ncc(C(F)(F)F)c(NCc3nccnc3N(C)S(C)(=O)=O)n2)cc1 [defactinib]
Procedure, shortened: as §1

[9] = compound: COC(=O)[C@H](CCSC)NC(=O)C1=C(C=C(C=C1)NC[C@H](CS)N)C2=CC=CC=C2
Procedure, shortened: as §1

[10] = compound: CCn1c(C(=O)N(C2CC2)C2CC2)cc2c3c(ncn3C)c(Nc3cc(C)n(C)n3)nc21
Procedure, shortened: as §1

rosiglitazone = compound: CN(CCOC1=CC=C(C=C1)C[C@H]2C(=O)NC(=O)S2)C3=CC=CC=N3 (racemic) [rosiglitazone]
Procedure, shortened: as §1

alvocidib = compound: CN1CC[C@H](c2c(O)cc(O)c3c(=O)cc(-c4ccccc4Cl)oc23)[C@H](O)C1 [alvocidib]
Procedure, shortened: as §1

Measured: log2 fold change

CCNT2 (UniProt O60583)
inactive: [1] 0.035 | volasertib -0.096 | [2] 0.056 | epoxomicin 0.004 | [3] -0.084 | [4] 0.023 | [5] -0.101 | saracatinib -0.016 | sotrastaurin -0.372 | Tubastatin A 0.157 | rucaparib -0.112 | [6] 0.04 | encorafenib 0.119

CCDC82 (UniProt Q8N4S0)
inactive: [1] -0.062 | [2] -0.018 | epoxomicin 0.143 | [7] 0.001 | [4] -0.069 | saracatinib 0 | Tubastatin A 0.102 | [8] 0.03 | defactinib -0.09 | rucaparib -0.069 | [6] -0.139 | encorafenib 0.021 | [9] -0.037
active: volasertib -0.349

CCND3 (UniProt P30281)
active: epoxomicin 0.363
inactive: [1] -0.085 | volasertib 0.102 | [3] -0.021 | [7] -0.022 | [4] 0.063 | [5] -0.175 | saracatinib 0.03 | Tubastatin A 0.242 | [8] -0.018 | defactinib -0.037 | rucaparib 0.113 | [6] -0.067 | encorafenib -0.11 | [9] 0

CCDC71L isoform 2 (UniProt Q8N9Z2)
inactive: [1] 0.113 | epoxomicin -0.03 | [10] -0.138 | rosiglitazone 0.076 | sotrastaurin 0.036 | alvocidib 0.194 | Tubastatin A -0.061 | [8] 0.056 | rucaparib -0.465 | encorafenib 0.124

CCDC186 (UniProt Q7Z3E2)
inactive: [1] 0.154 | [2] -0.046 | [10] -0.089 | [3] 0.089 | [7] 0.048 | rosiglitazone 0.112 | [4] 0.087 | [5] -0.26 | saracatinib -0.03 | sotrastaurin 0.05 | [8] -0.309 | defactinib -0.205 | rucaparib -0.056 | [6] -0.013 | encorafenib -0.038 | [9] -0.036

CCDC175 (UniProt P0C221)
inactive: [1] -0.068 | volasertib -0.166 | [2] 0.007 | [10] 0.02 | [3] 0.009 | [7] -0.03 | rosiglitazone 0.199 | [4] 0.018 | [5] -0.113 | saracatinib -0.125 | alvocidib -0.1 | [8] -0.013 | defactinib -0.029 | rucaparib -0.026 | [6] 0.059 | encorafenib 0.032 | [9] -0.021

CBARP (UniProt Q8N350)
inactive: [1] -0.081 | [2] 0.147 | epoxomicin -0.084 | [3] -0.058 | [7] -0.126 | rosiglitazone -0.004 | [4] 0.054 | [5] -0.06 | saracatinib 0.109 | sotrastaurin 0.026 | alvocidib -0.046 | Tubastatin A 0.188 | defactinib 0.005 | rucaparib 0.118 | [6] 0.103 | encorafenib -0.172 | [9] 0.021

CCNDBP1 (UniProt O95273)
inactive: [1] 0.088 | [2] 0.133 | [3] -0.036 | [7] -0.094 | [4] 0.013 | [5] -0.048 | saracatinib 0.078 | sotrastaurin -0.209 | Tubastatin A 0.001 | [8] 0.115 | defactinib -0.107 | rucaparib -0.002 | [6] -0.04 | encorafenib 0.062 | [9] -0.027

CD33 (UniProt P20138)
inactive: [1] -0.063 | volasertib 0.088 | epoxomicin -0.118 | [10] -0.034 | [3] -0.009 | [7] -0.023 | [4] 0.024 | [5] 0.118 | saracatinib 0.094 | sotrastaurin 0.128 | Tubastatin A -0.07 | [8] -0.043 | defactinib -0.034 | rucaparib 0.057 | [6] 0.001 | encorafenib 0.079 | [9] 0.081

CCDC57 (UniProt Q2TAC2)
inactive: [1] -0.033 | volasertib 0.012 | [2] -0.043 | epoxomicin -0.059 | [7] -0.034 | sotrastaurin 0.059 | Tubastatin A 0.026 | [8] 0.04 | defactinib 0.02 | rucaparib -0.15 | encorafenib 0.041 | [9] 0.007

CASP7 isoform 3 (UniProt P55210)
inactive: [1] 0.014 | [2] 0.017 | epoxomicin 0.222 | [3] -0.569 | [4] 0.032 | [5] -0.697 | saracatinib 0.185 | [8] 0.151 | rucaparib -0.013 | [6] 0.254 | encorafenib 0.014

CBFB (UniProt Q13951)
inactive: [1] -0.175 | [2] 0.042 | [10] -0.03 | [7] 0.111 | rosiglitazone 0.03 | [4] 0 | saracatinib -0.182 | alvocidib -0.03 | Tubastatin A 0.007 | [8] -0.002 | defactinib -0.06 | rucaparib 0.031 | [6] 0.009 | encorafenib 0.044 | [9] -0.04

CCNYL1 (UniProt Q8N7R7)
inactive: [1] -0.01 | [2] 0.042 | epoxomicin -0.03 | [10] 0.089 | [3] 0.019 | rosiglitazone -0.04 | [4] -0.132 | [5] 0.121 | saracatinib 0 | sotrastaurin -0.005 | alvocidib 0.037 | [8] -0.054 | rucaparib 0.099 | [6] -0.097 | encorafenib 0.138

CASP10 isoform 4 (UniProt Q92851)
inactive: [1] -0.091 | [2] 0.015 | epoxomicin 0.004 | [3] 0.121 | [7] -0.016 | [4] 0.023 | [5] -0.331 | saracatinib 0.034 | sotrastaurin -0.138 | Tubastatin A 0.127 | defactinib 0.028 | rucaparib 0.111 | [6] 0.04 | encorafenib 0.164 | [9] -0.039
active: volasertib -0.582

CCDC167 (UniProt Q9P0B6)
inactive: [1] 0.069 | volasertib -0.12 | [2] -0.029 | epoxomicin 0.019 | [3] 0.13 | [4] -0.095 | [5] 0.033 | saracatinib -0.05 | sotrastaurin -0.018 | Tubastatin A -0.063 | [8] -0.006 | rucaparib 0.021 | [6] 0.104 | encorafenib -0.037

Retrieved one by one from the entries so far, two records:
CBFB (UniProt Q13951)
inactive: [1] -0.175 | [2] 0.042 | [10] -0.03 | [7] 0.111 | rosiglitazone 0.03 | [4] 0 | saracatinib -0.182 | alvocidib -0.03 | Tubastatin A 0.007 | [8] -0.002 | defactinib -0.06 | rucaparib 0.031 | [6] 0.009 | encorafenib 0.044 | [9] -0.04

CCDC167 (UniProt Q9P0B6)
inactive: [1] 0.069 | volasertib -0.12 | [2] -0.029 | epoxomicin 0.019 | [3] 0.13 | [4] -0.095 | [5] 0.033 | saracatinib -0.05 | sotrastaurin -0.018 | Tubastatin A -0.063 | [8] -0.006 | rucaparib 0.021 | [6] 0.104 | encorafenib -0.037

Next part:

CDC25A (UniProt P30304)
inactive: [1] 0.054 | [2] -0.022 | epoxomicin -0.007 | [10] -0.05 | rosiglitazone -0.008 | sotrastaurin 0.03 | [8] -0.042 | rucaparib -0.002 | encorafenib -0.051

CBS (UniProt P35520)
inactive: [1] 0.007 | volasertib 0.036 | [2] -0.049 | epoxomicin 0.035 | [3] 0.02 | [7] -0.012 | [4] -0.073 | [5] -0.03 | saracatinib -0.009 | sotrastaurin 0.011 | Tubastatin A -0.069 | [8] -0.021 | defactinib 0.003 | rucaparib -0.061 | [6] -0.03 | encorafenib -0.001 | [9] -0.013

CCNY (UniProt Q8ND76)
inactive: volasertib -0.076 | [2] -0.037 | epoxomicin 0.006 | [10] 0.054 | [3] 0.171 | [7] -0.065 | rosiglitazone 0.03 | [4] -0.014 | [5] 0.14 | saracatinib -0.034 | sotrastaurin -0.034 | alvocidib 0.168 | Tubastatin A -0.03 | [8] -0.013 | defactinib -0.02 | [6] 0.001 | [9] -0.024

CCDC85C (UniProt A6NKD9)
inactive: [1] 0.054 | volasertib -0.126 | epoxomicin 0.084 | [3] -0.219 | [7] -0.075 | rosiglitazone -0.021 | [4] 0.135 | [5] -0.035 | saracatinib -0.042 | sotrastaurin -0.418 | alvocidib 0.03 | Tubastatin A 0.061 | defactinib 0.016 | rucaparib 0.016 | [6] -0.158 | encorafenib -0.166 | [9] -0.008

CDC25B isoform 4 (UniProt P30305)
inactive: [1] -0.003 | volasertib -0.049 | [2] -0.266 | epoxomicin 0.1 | [3] -0.092 | [7] -0.021 | [5] -0.081 | sotrastaurin -0.018 | [8] -0.019 | defactinib -0.25 | rucaparib 0.054 | encorafenib -0.059 | [9] 0.087

CBX8 (UniProt Q9HC52)
inactive: [1] -0.382 | [4] 0.282 | saracatinib -0.102 | alvocidib -0.101 | rucaparib 0.124 | [6] -0.139 | encorafenib 0.051

CCDC102A (UniProt Q96A19)
inactive: [1] 0.262 | volasertib 0.183 | epoxomicin 0.054 | [10] -0.318 | [3] -0.03 | [7] 0.058 | [5] 0.041 | alvocidib 0.006 | [8] 0.102 | defactinib -0.034 | rucaparib 0.029 | encorafenib -0.141 | [9] -0.19

— the supplement of paper PMC10849652
